Experimental data: patent publication US6949547B2, “Pyrazine based inhibitors of glycogen synthase kinase 3” (Chiron Corporation, priority 1999, dated 2005)
Some results were stated once for a whole list of compounds, not compound by compound.

Sequences of proteins named here, by UniProt entry; tags and fusion partners are left off. A change or cut given only in a name is not applied to a line headed by its entry.
UniProt P49841: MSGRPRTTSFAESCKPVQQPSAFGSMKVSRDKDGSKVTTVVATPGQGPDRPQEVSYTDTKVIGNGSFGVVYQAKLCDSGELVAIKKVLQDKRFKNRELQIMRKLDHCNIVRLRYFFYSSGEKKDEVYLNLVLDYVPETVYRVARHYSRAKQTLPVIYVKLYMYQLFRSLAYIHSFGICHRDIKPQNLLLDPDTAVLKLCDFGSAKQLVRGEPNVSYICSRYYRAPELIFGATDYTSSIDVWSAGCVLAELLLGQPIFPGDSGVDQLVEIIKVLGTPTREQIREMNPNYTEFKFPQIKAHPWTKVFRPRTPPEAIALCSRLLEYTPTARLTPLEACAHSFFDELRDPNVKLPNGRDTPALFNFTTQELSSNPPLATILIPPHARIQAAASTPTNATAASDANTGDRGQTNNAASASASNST

Target: human GSK3β (Homo sapiens, UniProt P49841)
Assay: Cell-free GSK3 kinase assay (biotinylated CREB peptide, 33P-ATP, scintillation)
Type: biochemical
Details: read-out: IC50 with respect to GSK3

**Q.** How did the IC50 turn out when `Nc1ncc(Br)nc1-c1ccc(Cl)cc1Cl` [Example 3, 3-(2,4-dichlorophenyl)-5-bromopyrazine-2-ylamine] was run?
**A.** Its IC50 is at most 1000 nM.

**Q.** With `CS(C)=Nc1ncc(Br)nc1-c1ccc(Cl)cc1Cl` [Example 4, (1Z)-1-aza-1-[3-(2,4-dichlorophenyl)-5-bromopyrazin-2-yl]-2-methyl-2-thiaprop-1-ene] as the compound, how does the IC50 read?
**A.** The IC50 was at most 1000 nM.

**Q.** `O=[N+]([O-])c1ncc(Br)nc1-c1ccc(Cl)cc1Cl` [Example 5, 3-(2,4-dichlorophenyl)-5-bromo-2-nitropyrazine] was tested. Which IC50 did it give?
**A.** The IC50 was at most 1000 nM.

**Q.** With `Nc1nc(NCCNc2cnc([N+](=O)[O-])c(-c3ccc(Cl)cc3Cl)n2)ccc1[N+](=O)[O-]` [Example 6, N^6-(2-{[6-(2,4-dichlorophenyl)-5-nitopyrazin-2-yl]amino}ethyl)3-nitropyridine-2-diamine] as the compound, how does the IC50 read?
**A.** The IC50 was at most 1000 nM.

**Q.** For `O=[N+]([O-])c1ccc(NCCNc2cnc([N+](=O)[O-])c(-c3ccc(Cl)cc3Cl)n2)nc1` [Example 7], which IC50 is on record?
**A.** Its IC50 is at most 1000 nM.

**Q.** With `N#Cc1ccc(NCCNc2cnc([N+](=O)[O-])c(-c3ccc(Cl)cc3Cl)n2)nc1` [Example 8, 6-[(2-{[6-(2,4-dichlorophenyl)-5-nitropyrazin-2-yl]amino}ethyl)amino]pyridine-3-carbonitrile4] as the compound, how does the IC50 read?
**A.** The IC50 was at most 1000 nM.

**Q.** With `CN(CCNc1ccc([N+](=O)[O-])cn1)c1cnc([N+](=O)[O-])c(-c2ccc(Cl)cc2Cl)n1` [Example 9, N-[6-(2,4-dichlorophenyl)-5-nitropyrazin-2-yl]-N-methyl-N′-(5-nitropyridin-2-yl) ethane-1,2-diamine] as the compound, how does the IC50 read?
**A.** The IC50 was at most 1000 nM.

**Q.** Which IC50 does the source give for `CC(=O)N(C(C)=O)c1nc(Br)cnc1-c1ccc(Cl)cc1Cl` [Example 10, N-acetyl-N-[3-(2,4-dichlorophenyl)-6-bromopyrazin-2-yl]acetamide] here?
**A.** The IC50 was at most 1000 nM.

**Q.** Which IC50 does the source give for `CC(=O)Nc1ncc(NCCNc2ccc([N+](=O)[O-])c(N)n2)nc1-c1ccc(Cl)cc1Cl` [Example 11, N-[5-({2-[(6-amino-5-nitropyridin-2-yl)amino]ethyl}amino)-3-(2,4-dichlorophenyl)pyrazin-2-yl]acetamide] here?
**A.** Its IC50 is at most 1000 nM.

**Q.** With `CC(C)(C)OC(=O)NCCNc1cnc([N+](=O)[O-])c(-c2ccc(Cl)cc2Cl)n1` [Example 12, 1,1-dimethylethyl2-{[6-(2,4-dichlorophenyl)-5-nitropyrazin-2-yl]amino}carbamate] as the compound, how does the IC50 read?
**A.** The IC50 was at most 1000 nM.

**Q.** How did the IC50 turn out when `NCCNc1cnc(N)c(-c2ccc(Cl)cc2Cl)n1` [Example 13] was run?
**A.** The IC50 was at most 1000 nM.

**Q.** For `Nc1nc(NCCNc2cnc(N)c(-c3ccc(Cl)cc3Cl)n2)ccc1[N+](=O)[O-]` [Example 14, N^5-{2-[(6-amino-5-nitropyridin-2-yl)amino]ethyl}-3-(2,4-dichlorophenyl) pyrazine-2,5-diamine], which IC50 is on record?
**A.** Its IC50 is at most 1000 nM.
